In US11970496B1, “Pyrrolo[3,2-c]quinoline compounds as CK2 inhibitors” (KING FAISAL UNIVERSITY, priority 2023, dated 2024) one finds IC50 data, which are given here for 1 compound.

What all share (assay type): cell-based
The subject of one assay is MIAPaCa-2 (pancreas). The assay can be described thus: In vitro cytotoxic activity assay (MTT), MIAPaCa-2. The following applies: Homo sapiens, MIA PaCa-2; MIAPaCa-2 cells, exposed for 96 hours; read-out: IC50, 50% inhibition of cell proliferation, MIAPaCa-2 (pancreas). The procedure:
(§1) Compounds 1-12 were screened for their in vitro cytotoxic activity utilizing a 3-(4,5-dimethyl-thiazol-2-yl)-2,5-diphenyltetrazolium bromide (MTT) assay against selected cancer human cell lines consisting of PC3 (prostate), HCT116 (colon), A375 (melanoma), H1299 (lung), MIAPaCa-2 (pancreas), HL60 (leukemia), MCF7 (breast), MDA-MB-231 (breast) (T. Mosmann, J. Immunol. Meth., 1983, 65, 55-63). The cells were cultured at 37° C. in RMPI1640 medium supplemented with 10% fetal bovine serum, 50 IU/mL penicillin, and 50 μg/mL streptomycin in a 5% CO2 incubator. All cells were sub-cultured 3 times/week by trypsinisation. Viable cells were seeded and allowed to adhere for 12 h before a test drug was added in 96-well plates at an initial density of 1.0×10^5 cells/mL. Tumour cell lines were separately exposed to various concentrations of the tested compounds followed by incubation at a temperature of 37° C. during 96 h inside a medium of fresh RMPI 1640. Cells were subsequently incubated at 37° C. using MTT at 0.5 mg/mL during 4 h. After removal of supernatant, formazan crystals were dissolved in isopropanol and the optical density was measured at 570 nm. CX-4945 was used as a positive control.

For another assay, the system named is MDA-MB-231 (breast). The assay can be described thus: In vitro cytotoxic activity assay (MTT), MDA-MB-231. Conditions: Homo sapiens; MDA-MB-231 cells, exposed for 96 hours; read-out: IC50, 50% inhibition of cell proliferation, MDA-MB-231 (breast). How it is done: as §1
The next assay has as its system H1299 (lung). The assay can be described thus: In vitro cytotoxic activity assay (MTT), H1299. The following applies: Homo sapiens, NCI-H1299; H1299 cells, exposed for 96 hours; read-out: IC50, 50% inhibition of cell proliferation, H1299 (lung). How it is done: as §1
A further assay has as its system HL60 (leukemia). The assay can be described thus: In vitro cytotoxic activity assay (MTT), HL60. The following applies: Homo sapiens, HL-60; HL60 cells, exposed for 96 hours; read-out: IC50, 50% inhibition of cell proliferation, HL60 (leukemia). The procedure:
as §1

The next assay relates to HCT116 (colon). The assay is described as follows: In vitro cytotoxic activity assay (MTT), HCT116. Conditions: Homo sapiens, HCT-116; HCT116 cells, exposed for 96 hours; read-out: IC50, 50% inhibition of cell proliferation, HCT116 (colon). The procedure:
as §1

For the next assay, the system named is A375 (melanoma). The assay can be described thus: In vitro cytotoxic activity assay (MTT), A375. Conditions: Homo sapiens, A-375; A375 cells, exposed for 96 hours; read-out: IC50, 50% inhibition of cell proliferation, A375 (melanoma). How it is done: as §1
The test system of another assay is MCF7 (breast). The assay is described as follows: In vitro cytotoxic activity assay (MTT), MCF7. The following applies: Homo sapiens; MCF7 cells, exposed for 96 hours; read-out: IC50, 50% inhibition of cell proliferation, MCF7 (breast). The procedure:
as §1

In the next assay the test system is PC3 (prostate). The assay can be described thus: In vitro cytotoxic activity assay (MTT), PC3. The following applies: Homo sapiens, PC-3; PC3 cells, exposed for 96 hours; read-out: IC50, 50% inhibition of cell proliferation, PC3 (prostate). How it is done: as §1

With `O=C(O)c1ccc2c(c1)nc(Nc1cccc(Cl)c1)c1ccncc12` [CX-4945, reference compound], the IC50 in the assay with MIAPaCa-2 (pancreas) was 1000 nM; in the assay with MDA-MB-231 (breast), 6200 nM; in the assay with H1299 (lung), 2300 nM; with HL60 (leukemia), 3700 nM; in the assay with HCT116 (colon), 2300 nM; in the assay with A375 (melanoma), 4100 nM. The IC50 in the assay on MCF7 (breast) worked out at 9100 nM; with PC3 (prostate), 2000 nM.
